No constants are given. Whether binding was seen depends on the method and setting. Tags and fused reporters may be left off the sequences shown.
Biological target: T1, Gal4 DNA-binding domain (BD) fused C8orf4 (UniProt Q9NR00)
T1 sequence: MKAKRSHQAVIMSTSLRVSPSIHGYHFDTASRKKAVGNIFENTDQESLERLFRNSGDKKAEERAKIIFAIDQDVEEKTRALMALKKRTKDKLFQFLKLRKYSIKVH
Assay: two-hybrid; Matchmaker Gold Yeast Two-Hybrid system; BD-C8orf4 (pGBKT7) and AD-N2ICD or AD-N2ECD (pGADT7) co-transformed into AH109; SD plate lacking adenine, histidine, tryptophan and leucine; beta-galactosidase activity

By UniProt entry, the sequences of proteins in these tests, tags left out. Residues count along the entry.
UniProt Q04721, residues 26-1677: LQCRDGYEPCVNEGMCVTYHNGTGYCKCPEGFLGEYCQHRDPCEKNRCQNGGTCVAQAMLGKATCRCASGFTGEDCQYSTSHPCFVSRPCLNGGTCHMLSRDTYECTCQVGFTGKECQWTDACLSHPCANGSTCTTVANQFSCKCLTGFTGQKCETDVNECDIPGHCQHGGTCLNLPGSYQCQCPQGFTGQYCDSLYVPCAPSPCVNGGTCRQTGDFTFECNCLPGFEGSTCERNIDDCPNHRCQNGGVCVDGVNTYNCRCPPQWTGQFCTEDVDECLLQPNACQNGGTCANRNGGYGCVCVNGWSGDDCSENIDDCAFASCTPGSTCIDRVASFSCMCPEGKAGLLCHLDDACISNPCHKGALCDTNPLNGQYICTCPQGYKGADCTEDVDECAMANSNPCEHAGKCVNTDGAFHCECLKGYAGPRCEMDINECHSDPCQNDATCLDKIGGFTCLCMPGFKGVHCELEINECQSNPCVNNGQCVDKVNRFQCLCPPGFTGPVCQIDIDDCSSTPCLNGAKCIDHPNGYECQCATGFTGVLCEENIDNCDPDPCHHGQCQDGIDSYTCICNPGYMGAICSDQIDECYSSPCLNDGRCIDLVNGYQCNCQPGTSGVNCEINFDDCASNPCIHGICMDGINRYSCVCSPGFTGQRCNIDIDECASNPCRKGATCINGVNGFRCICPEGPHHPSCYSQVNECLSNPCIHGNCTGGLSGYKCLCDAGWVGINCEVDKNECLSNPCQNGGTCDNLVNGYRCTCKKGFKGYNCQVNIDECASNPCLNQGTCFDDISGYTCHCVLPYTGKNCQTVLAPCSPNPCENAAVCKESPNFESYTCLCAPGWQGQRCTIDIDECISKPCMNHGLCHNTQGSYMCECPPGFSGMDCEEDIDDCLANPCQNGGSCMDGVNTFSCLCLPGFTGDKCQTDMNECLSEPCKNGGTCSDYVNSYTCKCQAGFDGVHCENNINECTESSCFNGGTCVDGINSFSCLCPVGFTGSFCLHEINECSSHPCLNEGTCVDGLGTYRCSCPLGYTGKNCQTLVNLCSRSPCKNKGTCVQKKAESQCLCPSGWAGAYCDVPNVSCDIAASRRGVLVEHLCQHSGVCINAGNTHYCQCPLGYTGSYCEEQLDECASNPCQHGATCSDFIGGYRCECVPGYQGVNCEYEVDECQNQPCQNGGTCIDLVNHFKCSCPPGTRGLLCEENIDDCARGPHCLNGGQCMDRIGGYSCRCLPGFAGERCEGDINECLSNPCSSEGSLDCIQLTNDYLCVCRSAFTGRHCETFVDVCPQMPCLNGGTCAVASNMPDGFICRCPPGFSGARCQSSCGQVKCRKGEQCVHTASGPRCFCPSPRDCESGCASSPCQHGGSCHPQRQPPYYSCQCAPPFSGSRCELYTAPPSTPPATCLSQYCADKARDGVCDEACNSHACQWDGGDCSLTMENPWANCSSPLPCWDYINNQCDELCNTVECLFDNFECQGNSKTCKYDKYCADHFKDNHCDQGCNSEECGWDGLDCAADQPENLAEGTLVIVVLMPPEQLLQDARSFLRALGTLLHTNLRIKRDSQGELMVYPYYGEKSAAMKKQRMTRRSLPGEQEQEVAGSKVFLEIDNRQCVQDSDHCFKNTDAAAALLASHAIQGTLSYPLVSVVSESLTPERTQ

Substance: Gal4-activating domain (AD) fused N2ECD (from UniProt Q04721 26-1677) (domain or fragment)
- binding: no binding

From PMC4479000
